# Laboratory results from ChEMBL document CHEMBL5154664, “Imidazolylacetophenone oxime-based multifunctional neuroprotective agents: Discovery and structure-activity relationships” (Eur J Med Chem, 2022).
# Test: Inhibition of LPS induced NO production in mouse BV-2 cells by Griess reagent based analysis
# Assay type: functional, cell-based
smiles,measurement,value
Clc1ccc(CO/N=C(\Cn2ccnc2)c2ccc(Cl)cc2Cl)c(Cl)c1 [OXICONAZOLE],EC50,13.5 µM
